Results are given in words; binding and its absence hold for the method and conditions named. A result given as binding can be weak or reduced; the word gives no strength. Where a sequence is shown, tags or fusion partners need not be part of it.

The test deals with T1, FhuC, ATPase of the hydroxamate siderophore transporter, T18 fusion (pUT18C:fhuC) (S. aureus USA300 LAC) (UniProt Q9X665).
T1 sequence: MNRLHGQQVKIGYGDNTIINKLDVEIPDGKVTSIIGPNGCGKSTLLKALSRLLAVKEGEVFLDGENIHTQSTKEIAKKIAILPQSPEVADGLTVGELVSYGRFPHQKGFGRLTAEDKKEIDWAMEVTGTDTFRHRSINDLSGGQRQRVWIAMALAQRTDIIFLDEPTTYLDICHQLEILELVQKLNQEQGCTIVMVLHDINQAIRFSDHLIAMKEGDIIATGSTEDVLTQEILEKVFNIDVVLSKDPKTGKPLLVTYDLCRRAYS
In words: two-hybrid; BACTH in E. coli BTH101: pKT25 (T25) permease + pUT18C (T18) FhuC; blue colonies on LB agar indicator plates with X-Gal and 0.5 mM IPTG after 1 day at 30°C.

In the case of “IsdF G217F, T25 fusion (pKT25:isdF_G217F) (S. aureus USA300 LAC)”, the binding entry is on record as “binds”.

For the substance “IsdF A213F, T25 fusion (pKT25:isdF_A213F) (S. aureus USA300 LAC)”, the binding entry was “binds”.

On to “IsdF A213F G217F, T25 fusion (pKT25:isdF_A+G_F) (S. aureus USA300 LAC)”, for which the binding entry was “no binding”.
